These results are taken from article doi:10.1101/2023.01.16.524337.

Chains of the proteins cited; added tags and fusions are not shown.
UniProt Q07820: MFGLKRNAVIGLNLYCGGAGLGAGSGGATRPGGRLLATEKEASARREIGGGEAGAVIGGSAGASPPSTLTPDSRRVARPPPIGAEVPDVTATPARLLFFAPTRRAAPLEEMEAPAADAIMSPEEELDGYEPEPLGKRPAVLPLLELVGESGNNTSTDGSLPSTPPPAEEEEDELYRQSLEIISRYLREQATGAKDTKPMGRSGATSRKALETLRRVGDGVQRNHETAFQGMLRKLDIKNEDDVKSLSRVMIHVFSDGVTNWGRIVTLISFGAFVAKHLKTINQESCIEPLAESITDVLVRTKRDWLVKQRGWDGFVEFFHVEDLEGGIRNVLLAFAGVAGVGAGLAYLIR

Results are given in words; binding and its absence hold for the method and conditions named. In cells and extracts the contact can be indirect. Some results given as binding are weak or reduced against the parent protein; the word gives no strength. For some assays here: Sequences can lack the tags named with a protein.

The target of test [1] is BAX (endogenous) (human (endogenous in HL60, THP-1, NB4, U937, PC9 and primary AML cells)), Q07812. The test can be described thus: co-IP. Particulars: remark: other sources report otherwise.
Test [2] addresses BCL2-mCherry (human), P10415. Description: pull-down. The note with it: remark: other sources report otherwise.
The target of test [3] is BCL2 (endogenous) (human (endogenous in HL60, THP-1, NB4, U937 and primary AML cells)), P10415. The test can be described thus: pull-down. The note with it: remark: other sources report otherwise.
For the next test, the target named is MCL1-mCherry (human) (UniProt Q07820). The test can be described thus: pull-down.

B1: BAK (endogenous), Q16611 1-211 (protein)
chain: MASGQGPGPPRQECGEPALPSASEEQVAQDTEEVFRSYVFYRHQQEQEAEGVAAPADPEMVTLPLQPSSTMGQVGRQLAIIGDDINRRYDSEFQTMLQHLQPTAENAYEYFTKIATSLFESGINWGRVVALLGFGYRLALHVYQHGLTGFLGQVTRFVVDFMLHHCIARWIAQRGGWVAALNLGNGPILNVLVVLGVVLLGQFVVRRFFKS
Turning to B1, in test [1], the binding result is reported as “binds”.

B2: NOXA-eGFP, Q13794 1-54 (protein)
chain: MPGKKARKNAQPSPARAPAELEVECATQLRRFGDKLNFRQKLLNLISKLFCSGT
Consider B2, for which, in test [2], the binding entry is given as “no binding”.

B3: BAD-eGFP, Q92934 1-168 (protein)
chain: MFQIPEFEPSEQEDSSSAERGLGPSPAGDGPSGSGKHHRQAPGLLWDASHQQEQPTSSSHHGGAGAVEIRSRHSSYPAGTEDDEGMGEEPSPFRGRSRSAPPNLWAAQRYGRELRRMSDEFVDSFKKGLPRPKSAGTATQMRQSSSWTRVFQSWWDRNLGRGSSAPSQ
Take B3: the binding result in test [2] and in test [3] was “binds” throughout.

B4: BAD-eGFP (protein, UniProt Q92934 1-168)
chain: B3 chain
As for B4, the binding entry with MCL1-mCherry (human) is recorded as “no binding”.
